Results reported in article doi:10.1101/2023.05.26.542337 (bioRxiv, 2023).
Results are given in words; binding and its absence hold for the method and conditions named. Some entries that bind do so weakly or less than the wild type.

The chains behind the UniProt entries cited, without tags or fusion partners.
UniProt Q51473: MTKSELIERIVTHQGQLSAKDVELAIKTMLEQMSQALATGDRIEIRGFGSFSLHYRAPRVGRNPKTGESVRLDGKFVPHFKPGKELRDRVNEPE
UniProt Q51472: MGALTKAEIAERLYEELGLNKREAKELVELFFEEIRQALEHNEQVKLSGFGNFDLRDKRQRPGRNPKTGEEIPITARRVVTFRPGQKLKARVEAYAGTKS

Biological target: Integration host factor subunit beta (IHFβ), P. aeruginosa (P. aeruginosa) (UniProt Q51473)
Experiment: cryo-EM structure

## Integration host factor subunit alpha (IHFα), P. aeruginosa (from UniProt Q51472 1-100)
  binding: binds
